Experimental data reported in patent US20140370521A1, “IDENTIFICATION OF TWO NOVEL BIOMARKERS FOR NIEMANN-PICK DISEASE TYPE C” (The USA , as Represented by the Secretary, Department of …, priority 2011, published 2014).

B1: Afm (protein, UniProt O89020 22-608, looked up)
Afamin: LPTKPQDVDHFNATQKFIDENTTYLAIIAFSQYVQEASFDEVETLVKVMLDYRDRCWADNTLPECSKTANDAIQDMLCDMEGLPQKHNFSHCCGKAGFPRRLCFFYNKKANVGFLPPFPTLDPEEKCQAYKNNSESFLHLYMYEVARRNPFVFAPVLLAVAAWFEEAATTCCEQQQKATCFQAKAAPITQYLKASSSYQRNVCGALIKFGPKVLNSINVAVFSKKFPKIGFKDLTTLLEDVSSMYEGCCEGDVVHCIRSQSQVVNHICSKQDSISSKIKVCCEKKTLEREACIINANKDDRPEGLSLREAKFTESENVCQERDSDPDKFFAEFIYEYSRRHPDLSTPELLRITKVYMDFLEDCCSRENPAGCYRHVEDKFNETTQRSLAMVQQECKQFQELGKDTLQRHFLVKFTKAAPQLPMEELVSLSKEMVAALTTCCTLSDEFACVDNLADLVLGELCGVNTNRTINPAVDHCCKTDFAFRRHCFEHLKADTTYELPSVSALVSALHTDWCQPRKEDLQNKKHRFLVNLVKWMPGITDEEWLCLFTKFTAAREECSEVQEPESCFSPESSKTGDESQATEKQR
B2: Bgn (protein, UniProt P28653 38-369, looked up)
Biglycan: DEEASGSDTTSGVPDLDSVTPTFSAMCPFGCHCHLRVVQCSDLGLKTVPKEISPDTTLLDLQNNDISELRKDDFKGLQHLYALVLVNNKISKIHEKAFSPLRKLQKLYISKNHLVEIPPNLPSSLVELRIHDNRIRKVPKGVFSGLRNMNCIEMGGNPLENSGFEPGAFDGLKLNYLRISEAKLTGIPKDLPETLNELHLDHNKIQAIELEDLLRYSKLYRLGLGHNQIRMIENGSLSFLPTLRELHLDNNKLSRVPAGLPDLKLLQVVYLHSNNITKVGINDFCPMGFGVKRAYYNGISLFNNPVPYWEVQPATFRCVTDRLAIQFGNYKK
B3: Ccl3 (protein, UniProt P10855 24-92, looked up)
C-C motif chemokine 3: APYGADTPTACCFSYSRKIPRQFIVDYFETSSLCSQPGVIFLTKRNRQICADSKETWVQEYITDLELNA
B4: Ccl6 (protein, UniProt P27784 22-116, looked up)
C-C motif chemokine 6: GLIQEMEKEDRRYNPPIIHQGFQDTSSDCCFSYATQIPCKRFIYYFPTSGGCIKPGIIFISRRGTQVCADPSDRRVQRCLSTLKQGPRSGNKVIA

What follows are molecules tested on Npc1-/- mouse liver (assay: Liver gene expression microarray, Npc1-/- versus control mice (Affymetrix Mouse GeneChip 1.0 ST)). Conditions: 1 week of age, negative = lower in Npc1−/−.

Molecule | FC (fold-change of expression between Npc1−/− and control mice)
B1 | −1.24

Same assay, conditions: 3 weeks of age, negative = lower in Npc1−/−

Molecule | FC (fold-change of expression between Npc1−/− and control mice)
B2 | 1.34
B3 | 1.70
B1 | −1.35
B4 | 1.57

Same assay, conditions: 5 weeks of age, negative = lower in Npc1−/−

Molecule | FC (fold-change of expression between Npc1−/− and control mice)
B2 | 1.35
B3 | 2.30
B4 | 1.83

Same assay, conditions: 7 weeks of age, negative = lower in Npc1−/−

Molecule | FC (fold-change of expression between Npc1−/− and control mice)
B2 | 1.55
B3 | 2.04
B1 | −1.72
B4 | 2.42

Same assay, conditions: 11 weeks of age, negative = lower in Npc1−/−

Molecule | FC (fold-change of expression between Npc1−/− and control mice)
B2 | 1.63
B3 | 5.09
B1 | −3.97
B4 | 3.83

Same assay, conditions: head prints "weeks" (column between 7 weeks and 11 weeks), negative = lower in Npc1−/−

Molecule | FC (fold-change of expression between Npc1−/− and control mice)
B2 | 1.48
B3 | 2.55
B1 | −1.72
B4 | 2.65

The expression values are mRNA levels of the gene; the protein chain is shown to identify it.
